# The list does not hold the whole screen: it gathers tests that were run many times, whatever their T/C, doses with no T/C, and many T/C values between a quarter and a half above the control. Further doses and runs are listed elsewhere. T/C: endpoint of the treated group in % of that of the vehicle group. Some entries give survivors of the animals treated and no T/C: the source files T/C as zero there, which appears to mark a toxic dose or a test without result, not a measured value. Some doses without a T/C left all or most animals alive at the check, yet need not have been tolerated: survival well below the control is almost never listed, so the zero probably covers shortened survival too. Survivors were counted at the toxicity check, usually on the fifth day, unless a day is given; later deaths do not show. Schedule codes are those of the source, read here as Q, the interval in days (D) or hours (H), X, the number of doses. Some entries were tested several times; the results are listed from low to high. Additions like (4×) stand for listed records that agree. Where survival is the endpoint, this PubChem deposit counts one and a half times the control or more as active, and values a quarter to a half above the control carry no call in these data; other NCI protocols may use other cut-offs. Some T/C values are followed by the survivors on the day toxicity was checked, most often the fifth; where none is given, no animal had died by that day.
# System: P388 leukemia ip, CD2F1 mice, survival T/C
# Assay: NCI In Vivo Anticancer Drug Screen. Data for tumor model P388 Leukemia (intraperitoneal) in CD2F1 (CDF1) mice
# Details: T/C endpoint: median survival time, higher T/C = longer survival
# [1] = dose: 10.0 mg/kg/injection, schedule: Q04DX003 (ip), vehicle: saline
# [2] = dose: 15.0 mg/kg/injection, schedule: Q04DX003 (ip), vehicle: saline
# [3] = dose: 2.5 mg/kg/injection, schedule: Q01DX009 (ip), vehicle: Klucel (hydroxypropylcellulose) (HPC)
# [4] = dose: 200.0 mg/kg/injection, schedule: Q01DX005 (ip), vehicle: saline with Tween-80
# [5] = dose: 12.5 mg/kg/injection, schedule: Q01DX005 (ip), vehicle: saline with Tween-80
# [6] = dose: 200.0 mg/kg/injection, schedule: Q01DX001 (ip), vehicle: Klucel (hydroxypropylcellulose) (HPC)
# [7] = dose: 100.0 mg/kg/injection, schedule: Q01DX005 (ip), vehicle: Klucel (hydroxypropylcellulose) (HPC)
# [8] = dose: 16.0 mg/kg/injection, schedule: Q01DX001 (ip), vehicle: water
smiles,measurement,setting,value
CC1CN1CC(O)C(O)CN1CC1C (centres undefined),T/C,"dose: 0.04 mg/kg/injection, schedule: Q04DX003 (ip), vehicle: saline",136 % of control
same,T/C,"dose: 0.08 mg/kg/injection, schedule: Q04DX003 (ip), vehicle: saline",140 % of control
same,T/C,"dose: 1.5 mg/kg/injection, schedule: Q04DX003 (ip), vehicle: saline",136 % of control
same,survivor count,"dose: 5.0 mg/kg/injection, schedule: Q01DX009 (ip), vehicle: saline with Tween-80",6 of 6
same,survivor count,"dose: 7.5 mg/kg/injection, schedule: Q04DX003 (ip), vehicle: saline",6 of 6
same,survivor count,"dose: 10.0 mg/kg/injection, schedule: Q01DX009 (ip), vehicle: saline",6 of 6
same,survivor count,[1],6 of 6
same,survivor count,"dose: 11.25 mg/kg/injection, schedule: Q04DX003 (ip), vehicle: saline",6 of 6
same,survivor count,[2],3 of 6
same,survivor count,"dose: 20.0 mg/kg/injection, schedule: Q04DX003 (ip), vehicle: saline",2 of 6 and 4 of 6
same,survivor count,"dose: 100.0 mg/kg/injection, schedule: Q04DX003 (ip), vehicle: saline with Tween-80",0 of 6 (2×)
same,survivor count,"dose: 200.0 mg/kg/injection, schedule: Q04DX003 (ip), vehicle: saline with Tween-80",0 of 6 (2×)
same,survivor count,"dose: 400.0 mg/kg/injection, schedule: Q04DX003 (ip), vehicle: saline with Tween-80",0 of 6 (2×)
COc1cc2c(c(OC)c1OC)-c1ccc(OC)c(=O)cc1[C@@H](N(C)C=O)CC2,T/C,"dose: 0.62 mg/kg/injection, schedule: Q01DX009 (ip), vehicle: Klucel (hydroxypropylcellulose) (HPC)",137 % of control
same,T/C,"dose: 1.25 mg/kg/injection, schedule: Q01DX009 (ip), vehicle: Klucel (hydroxypropylcellulose) (HPC)",128 % of control
same,T/C,[3],140 % of control
same,survivor count,[3],4 of 6
same,survivor count,"dose: 5.0 mg/kg/injection, schedule: Q01DX009 (ip), vehicle: Klucel (hydroxypropylcellulose) (HPC)",4 of 6 and 6 of 6
same,survivor count,"dose: 10.0 mg/kg/injection, schedule: Q01DX009 (ip), vehicle: Klucel (hydroxypropylcellulose) (HPC)",4 of 6
same,survivor count,"dose: 20.0 mg/kg/injection, schedule: Q01DX009 (ip), vehicle: Klucel (hydroxypropylcellulose) (HPC)",4 of 6
C=C1C(=O)OC2CC1C(OC(C)=O)CC1(C)OC1CCC1(C)OC1CCC2(C)O (centres undefined),T/C,"dose: 50.0 mg/kg/injection, schedule: Q01DX009 (ip), vehicle: Klucel (hydroxypropylcellulose) (HPC)",126 % of control
same,T/C,"dose: 100.0 mg/kg/injection, schedule: Q01DX009 (ip), vehicle: Klucel (hydroxypropylcellulose) (HPC)",128 % of control [5 of 6 alive]
NC(=S)N/N=C/c1cccc(CC(O)(C(F)(F)F)C(F)(F)F)n1,survivor count,"dose: 50.0 mg/kg/injection, schedule: Q04DX003 (ip), vehicle: saline with Tween-80",4 of 6
CN1CCN(CC2C(=O)C3CCC2C3)CC1 (centres undefined),survivor count,[4],1 of 6
COc1cc(OC)c(NC(=O)C(Sc2nc(C)cc(C)c2C#N)c2ccccc2)cc1Cl (centres undefined),survivor count,"dose: 12.5 mg/kg/injection, schedule: Q01DX005 (ip), vehicle: Klucel (hydroxypropylcellulose) (HPC)",6 of 6
same,survivor count,"dose: 50.0 mg/kg/injection, schedule: Q01DX005 (ip), vehicle: Klucel (hydroxypropylcellulose) (HPC)",6 of 6
CO[C@H]1/C=C/O[C@@]2(C)Oc3c(C)c(O)c4c(O)c(c(/C=N/N5CCNCC5)c(O)c4c3C2=O)NC(=O)/C(C)=C\C=C\[C@H](C)[C@H](O)[C@@H](C)[C@@H](O)[C@@H](C)C(OC(C)=O)[C@@H]1C (some centres undefined),survivor count,"dose: 400.0 mg/kg/injection, schedule: Q01DX009 (ip), vehicle: saline with Tween-80",3 of 6
COc1cccc2c1C(=O)c1c(O)c(CCl)cc(O)c1C2=O,survivor count,"dose: 60.0 mg/kg/injection, schedule: Q01DX005 (ip), vehicle: saline with Tween-80",4 of 6
same,survivor count,"dose: 120.0 mg/kg/injection, schedule: Q01DX005 (ip), vehicle: saline with Tween-80",0 of 6
same,survivor count,"dose: 240.0 mg/kg/injection, schedule: Q01DX005 (ip), vehicle: saline with Tween-80",0 of 6
COc1cc(C2c3cc(O)c(OC)cc3CC(O)(CO)C2CO)ccc1O (centres undefined),survivor count,"dose: 380.0 mg/kg/injection, schedule: Q01DX005 (ip), vehicle: Klucel (hydroxypropylcellulose) (HPC)",5 of 5
C=C1C(O)C2(O)OCC34C(CC5C(C)=CC(=O)C(O)C5(C)C23)OC(=O)C(OC(=O)C(C)(O)CC)C14 (centres undefined),T/C,"dose: 0.5 mg/kg/injection, schedule: Q01DX009 (ip), vehicle: saline + alcohol",126 % of control
same,T/C,"dose: 1.0 mg/kg/injection, schedule: Q01DX009 (ip), vehicle: saline + alcohol",128 and 146 % of control [5 of 6 alive]
same,T/C,"dose: 2.0 mg/kg/injection, schedule: Q01DX009 (ip), vehicle: saline + alcohol",128 % of control
same,survivor count,"dose: 3.0 mg/kg/injection, schedule: Q01DX009 (ip), vehicle: saline + alcohol",4 of 6
same,survivor count,"dose: 4.0 mg/kg/injection, schedule: Q01DX009 (ip), vehicle: saline + alcohol",0 of 6
same,survivor count,"dose: 8.0 mg/kg/injection, schedule: Q01DX009 (ip), vehicle: saline + alcohol",0 of 6
same,survivor count,"dose: 16.0 mg/kg/injection, schedule: Q01DX009 (ip), vehicle: saline + alcohol",0 of 6
CCN(CC)CCNc1ccc(CO)c2oc3ccc(O)cc3c(=O)c12,survivor count,"dose: 400.0 mg/kg/injection, schedule: Q01DX005 (ip), vehicle: saline with Tween-80",6 of 6
C[N+](C)(C)C.[CH-]1CCCCC1.[CH-]1CCCCC1.[CH-]1CCCCC1.[Cl-].[Cl-].[Sn+4],survivor count,[5],1 of 6
same,survivor count,"dose: 50.0 mg/kg/injection, schedule: Q01DX005 (ip), vehicle: saline with Tween-80",0 of 6
same,survivor count,"dose: 100.0 mg/kg/injection, schedule: Q01DX005 (ip), vehicle: saline with Tween-80",0 of 6
same,survivor count,[4],0 of 6
Nc1ncnc2c1ncn2C(C=O)OC(C=O)CO (centres undefined),T/C,[1],131 % of control
same,T/C,[2],127 % of control [5 of 6 alive]
same,T/C,"dose: 18.7 mg/kg/injection, schedule: Q04DX003 (ip), vehicle: saline",140 % of control
same,survivor count,"dose: 50.0 mg/kg/injection, schedule: Q01DX009 (ip), vehicle: saline",6 of 6
N#Cc1c(-c2ccccc2)nc2sccn12,survivor count,[6],5 of 6
COc1cc2c[n+](C)c3c(c2cc1OC)Cc1c-3ccc(O)c1OC,T/C,[6],134 % of control
same,T/C,"dose: 400.0 mg/kg/injection, schedule: Q01DX001 (ip), vehicle: Klucel (hydroxypropylcellulose) (HPC)",137 % of control
Nc1nc(=O)nc2[nH]c3c4cccc5cccc(c3nc12)c54 (tested in a mixture with another compound),T/C,[7],126 % of control
same,survivor count,[7],6 of 6
same,survivor count,"dose: 200.0 mg/kg/injection, schedule: Q01DX005 (ip), vehicle: Klucel (hydroxypropylcellulose) (HPC)",1 of 6
COC(C(=O)C(O)C(C)O)C1CC2C=C3C=C(OC4CC(OC5CC(O)C(OC)C(C)O5)C(OC(C)=O)C(C)O4)C(C)C(=O)C3=C(O)C2=C(O)C1OC1CC(OC2CC(OC3CC(C)(O)C(O)C(C)O3)C(O)C(C)O2)C(O)C(C)O1 (centres undefined),T/C,"dose: 4.0 mg/kg/injection, schedule: Q01DX001 (ip), vehicle: water, evaluated on day 35",126 % of control
same,T/C,"dose: 4.0 mg/kg/injection, schedule: Q01DX001 (ip), vehicle: water, evaluated on day 45",134 % of control
same,T/C,"dose: 8.0 mg/kg/injection, schedule: Q01DX001 (ip), vehicle: water",136 % of control
same,T/C,[8],145 % of control [4 of 6 alive]
same,survivor count,[8],0 of 6
same,survivor count,"dose: 32.0 mg/kg/injection, schedule: Q01DX001 (ip), vehicle: water",0 of 6
same,survivor count,"dose: 64.0 mg/kg/injection, schedule: Q01DX001 (ip), vehicle: water",0 of 6
CCOC(=O)c1cc2c(nc1C)-c1ccccc1OC2Nc1ccccc1 (centres undefined),survivor count,[5],6 of 6
same,survivor count,"dose: 25.0 mg/kg/injection, schedule: Q01DX005 (ip), vehicle: saline with Tween-80",6 of 6
same,survivor count,"dose: 200.0 mg/kg/injection, schedule: Q01DX001 (ip), vehicle: saline with Tween-80",6 of 6
same,survivor count,"dose: 400.0 mg/kg/injection, schedule: Q01DX001 (ip), vehicle: saline with Tween-80",6 of 6

# Reference: PubChem BioAssay AID330 (DTP/NCI, 2004)
